We go through three molecules from article PMC10647656.

By UniProt entry, the sequences of proteins in these tests, tags left out. Where a name states a change or a piece, a line headed by the entry shows the natural chain unless it says otherwise.
UniProt Q9H4E5: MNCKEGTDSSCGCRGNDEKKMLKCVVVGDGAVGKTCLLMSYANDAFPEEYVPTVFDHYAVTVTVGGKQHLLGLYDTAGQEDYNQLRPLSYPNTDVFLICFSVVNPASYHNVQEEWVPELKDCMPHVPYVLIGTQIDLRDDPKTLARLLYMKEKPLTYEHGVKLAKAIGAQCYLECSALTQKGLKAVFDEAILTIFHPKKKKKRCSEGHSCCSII
UniProt P50148: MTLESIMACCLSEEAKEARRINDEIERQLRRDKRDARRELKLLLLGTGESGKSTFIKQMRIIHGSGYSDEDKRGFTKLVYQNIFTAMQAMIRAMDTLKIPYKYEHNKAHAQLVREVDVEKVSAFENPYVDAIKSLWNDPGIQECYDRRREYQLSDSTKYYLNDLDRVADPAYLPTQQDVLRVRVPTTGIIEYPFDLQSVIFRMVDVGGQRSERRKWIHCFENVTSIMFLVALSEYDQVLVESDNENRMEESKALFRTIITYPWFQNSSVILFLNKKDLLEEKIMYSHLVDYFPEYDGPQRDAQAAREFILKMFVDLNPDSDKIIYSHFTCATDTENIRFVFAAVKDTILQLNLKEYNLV

No constants are given. Whether binding was seen depends on the method and setting. In cells and extracts the contact can be indirect. Some binding calls cover weakened binding; strength is not graded here. For part of these data: Where a sequence is shown, tags or fusion partners need not be part of it.

The target in experiment [1] is T1, GST-PRG-PH (UniProt O15085).
T1 sequence: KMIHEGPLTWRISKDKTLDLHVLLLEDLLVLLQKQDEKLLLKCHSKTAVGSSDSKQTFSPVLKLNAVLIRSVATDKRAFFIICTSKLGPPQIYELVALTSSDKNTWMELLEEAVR
Nature of the experiment: pull-down; GST fusion and partners co-transfected in HEK293T cells, serum-starved overnight; lysates (TBS-Triton: 50 mM Tris pH 7.5, 150 mM NaCl, 1% Triton X-100, 5 mM EDTA) on glutathione-sepharose 1 h at 4 °C, 3 washes, Western blot; in some panels cells treated with the Gq inhibitor YM254890 (1 µM, 2 h) or co-transfected with active Gα subunits. Background: A western blot detects proteins with antibodies after separation by electrophoresis.

For experiment [2], the target named is GST-RhoJ-G33A (nucleotide-free RhoJ) (UniProt Q9H4E5). The description is as above.
Experiment [3] addresses HA-Gαq-Q209L (constitutively active, oncogenic Gαq) (UniProt P50148). Nature of the experiment: pull-down; competition: GST pull-down from lysates of transfected HEK-293T cells (bait GST-PRG-DH-PH, or GST-RhoJ-G33A with PRG-DH-PH) with or without co-transfected EGFP-PRG-PH as competitor; Western blot.

Take “HA-Gαq-Q209L (constitutively active, oncogenic Gαq) (from UniProt P50148 1-359)”: the binding entry in experiment [1] was “binds”.
For “full-length PDZ-RhoGEF (AU1-PRG) (from UniProt O15085 1-1522)”, the binding entry in experiment [2] was “binds”.

B1: EGFP-tagged PDZ-RhoGEF-PH (EGFP-PRG-PH) (domain or fragment, UniProt O15085 965-1079)
chain: KMIHEGPLTWRISKDKTLDLHVLLLEDLLVLLQKQDEKLLLKCHSKTAVGSSDSKQTFSPVLKLNAVLIRSVATDKRAFFIICTSKLGPPQIYELVALTSSDKNTWMELLEEAVR
In the case of B1, in experiment [3], the binding entry is “binds”.
